This passage reports binding results from publication PMC4606454.

The experiment addresses Flag-Myc4-TrAP (Tomato Golden Mosaic Virus (TGMV)). In words: affinity purification with mass spectrometry; two-step immunoprecipitation (anti-FLAG M2 beads, FLAG peptide elution, anti-c-Myc agarose) from Arabidopsis plants expressing XVE-Flag-Myc4-TrAP induced with beta-estradiol; Col-0 as control.

No constants are given. Whether binding was seen depends on the method and setting. In cells and extracts the contact can be indirect. Here binding means that the protein was enriched with, or labelled near, the bait; the list need not be complete.

B1: endogenous KYP/SUVH4 (enzyme, UniProt Q8GZB6 1-624)
chain: MAGKRKRANAPDQTERRSSVRVQKVRQKALDEKARLVQERVKLLSDRKSEICVDDTELHEKEEENVDGSPKRRSPPKLTAMQKGKQKLSVSLNGKDVNLEPHLKVTKCLRLFNKQYLLCVQAKLSRPDLKGVTEMIKAKAILYPRKIIGDLPGIDVGHRFFSRAEMCAVGFHNHWLNGIDYMSMEYEKEYSNYKLPLAVSIVMSGQYEDDLDNADTVTYTGQGGHNLTGNKRQIKDQLLERGNLALKHCCEYNVPVRVTRGHNCKSSYTKRVYTYDGLYKVEKFWAQKGVSGFTVYKYRLKRLEGQPELTTDQVNFVAGRIPTSTSEIEGLVCEDISGGLEFKGIPATNRVDDSPVSPTSGFTYIKSLIIEPNVIIPKSSTGCNCRGSCTDSKKCACAKLNGGNFPYVDLNDGRLIESRDVVFECGPHCGCGPKCVNRTSQKRLRFNLEVFRSAKKGWAVRSWEYIPAGSPVCEYIGVVRRTADVDTISDNEYIFEIDCQQTMQGLGGRQRRLRDVAVPMNNGVSQSSEDENAPEFCIDAGSTGNFARFINHSCEPNLFVQCVLSSHQDIRLARVVLFAADNISPMQELTYDYGYALDSVHGPDGKVKQLACYCGALNCRKRLY
As for B1, the binding entry is “binds”.
